The source of these data is paper PMC12716022, “Synthesis, In Silico, and Biological Evaluation of Non‐Hydroxamate Benzoic Acid–Based Derivatives as Potential Histone Deacetylase Inhibitors (HDACi)” (Chemistry & Biodiversity, 2025).

One series concerns MCF‐7. The series is described as follows: MTT in vitro cytotoxicity assay, MCF‐7. In kind it is cell-based, human. Particulars: 72 h treatment, mean ± SD of three experiments in triplicates. How it is done: (§1) The following human cell lines obtained from American Type Culture Collection (ATCC) were used to elucidate the antiproliferative effect of the newly synthesized compounds: HepG2 (HB‐8065; hepatocellular carcinoma), MCF‐7 (HTB‐22; breast cancer), K562 (CCL‐243; myeloid leukemia), and MCF‐10A (CRL‐10317; normal mammary cells). MCF‐7 and K562 cells were maintained in RPMI‐1640 media (Capricorn, Germany), whereas HepG2 cells were grown in high‐glucose DMEM (Capricorn, Germany). All media used were supplemented with 10% fetal bovine serum (Gibco, USA), 1% L‐glutamine (Gibco, USA), and 1% penicillin/streptomycin (Gibco, USA). MCF‐10A cells were cultured in DMEM/F12 media (Capricorn, Germany) supplemented with 5% horse serum (Gibco, USA), epidermal growth factor (EGF; Sigma, USA), insulin (Sigma, USA), hydrocortisone (Sigma, USA), and cholera toxin (Sigma, USA). Cells were maintained in humidified incubator with 5% CO2 at 37°C.
(§2) To evaluate the effects of the compounds on cell proliferation and determine their inhibitory concentration (IC50), eight different concentrations (0.03, 0.1, 0.3, 1, 3, 10, 30, and 100 µM) of each compound were tested. Cells were seeded at a density of 5 × 10^3 cells per well in a 96‐well plate and incubated for 24 h to allow cell attachment. […]

Series [1] in a line: MTT in vitro cytotoxicity assay, normal MCF‐10A. In kind it is cell-based. Particulars: MCF-10A normal mammary cells, 72 h treatment, normal human breast cells, mean ± SD. How it is done: as §1, §2

In general, IC50 refers to the concentration that inhibits the measured activity by half. As to `O=C(CCCCCCC(=O)Nc1ccccc1)NO` [SAHA, vorinostat, reference compound], the IC50 was determined as 20.3 ± 2.2 µM in the series on MCF‐7 and 39.2 µM with MCF‐7 (Homo sapiens, MCF7, 72 h). In addition, the IC50 at 72 h in series [1] was 270 ± 29.6 µM.
